Measurements taken from the odorant receptor screen of Mainland et al. (2015).
Several values for one entry are separate records, joined by “and”; a condition that tells them apart may be missing. Equal entries are not always repeated. The list shows a part of the results. Each value is one well over the wells without odorant, computed here; the data are noisy.

How the values were obtained:
Experiment in all cases: odorant receptor activation (CRE luciferase / Renilla) (fold of no-odor wells); higher = more activation
Conditions in all cases: 100 µM
[1] = system: OR2AG2 Y28C/R54P/R299G clone 1486
[2] = system: OR2AJ1 M1V clone 1448
[3] = system: OR2AK2 V188M clone 1415
[4] = system: OR2AP1 clone 1256
[5] = system: OR2AT4 clone 1522
[6] = system: OR2B11 clone 1418
[7] = system: OR2B2 clone 1333
[8] = system: OR2B2 clone 1544
[9] = system: OR2B3 clone 1063
[10] = system: OR2B6 clone 1436
[11] = system: OR2B8 Indel clone 1076
[12] = system: OR2C1 C149W clone 1282
[13] = system: OR2C1 G16S/C149W/R229H clone 1408
[14] = system: OR2C1 P58S/C149W clone 1409
[15] = system: OR2C1 clone 1406
[16] = system: OR2C1 clone 1407
[17] = system: OR2C3 T20A/P68S/L289V clone 1454
[18] = system: OR2D2 clone 1235
[19] = system: OR2D3 L66I clone 1381
[20] = system: OR2F1 clone 1082

Row | Structure (SMILES) | odorant receptor activation [1] | odorant receptor activation [2] | odorant receptor activation [3] | odorant receptor activation [4] | odorant receptor activation [5] | odorant receptor activation [6] | odorant receptor activation [7] | odorant receptor activation [8] | odorant receptor activation [9] | odorant receptor activation [10] | odorant receptor activation [11] | odorant receptor activation [12] | odorant receptor activation [13] | odorant receptor activation [14] | odorant receptor activation [15] | odorant receptor activation [16] | odorant receptor activation [17] | odorant receptor activation [18] | odorant receptor activation [19] | odorant receptor activation [20]
1 | C=CCc1ccc(OC(C)=O)c(OC)c1 [eugenol acetate] | 1.66 | 1.78 | 1.68 | 1.7 | 2.02 | 1.12 | 1.75 | 1.94 | 1.8 | 1.7 | 1.71 | 1.55 | 1.28 | 1.29 | 1.41 | 1.45 | 1.73 | 2.09 | 1.82 | 1.69
2 | c1cnccn1 [pyrazine] | 0.78 | 1.21 | 1.11 | 0.712 | 1.01 | 1.45 | 0.672 | 0.957 | 1.22 | 1.24 | 0.895 | 0.934 | 1.2 | 0.941 | 0.99 | 1.08 | 1.27 | 0.904 | 1.13 | 0.977
3 | C=CC(C)(O)CCC=C(C)C (stereo not given) [linalool] | 1.01 | 1.05 | 0.788 | 0.847 | 1.08 | 0.86 | 0.787 | 1.24 | 1.1 | 0.929 | 0.933 | 1.24 | 0.819 | 0.806 | 0.843 | 0.872 | 0.66 | 1.04 | 0.657 | 0.971
4 | CC/C=C\CCO [cis-3-hexen-1-ol] | 0.704 | 0.145 | 0.266 | 0.728 | 1.07 | 0.291 | 0.773 | 0.943 | 1.16 | 0.242 | 1.01 | 0.851 | 0.389 | 0.326 | 0.424 | 0.321 | 1.32 | 0.966 | 0.257 | 1.09
5 | CC1CCC(C(C)C)C(O)C1 (single isomer, unassigned; (+)) [(+)-menthol] | 0.946 | 1.26 | 1.13 | 0.982 | 1.16 | 1.35 | 1.1 | 1.22 | 9.96 | 1.37 | 3.42 | 1.49 | 1.32 | 1.57 | 1.38 | 1.05 | 1.13 | 0.754 | 0.382 | 2.8
6 | c1ccc(Oc2ccccc2)cc1 [diphenyl ether] | 1.2 | 0.964 | 0.899 | 1.12 | 1.27 | 0.877 | 1.27 | 1.44 | 0.78 | 1.36 | 0.813 | 1.06 | 0.895 | 0.855 | 0.792 | 1.17 | 0.641 | 1.06 | 1.04 | 1.1
7 | CC(=O)OC(C)(C)C1CC=C(C)CC1 (stereo not given) [terpinyl acetate] | 0.964 | 0.958 | 0.976 | 0.934 | 1.29 | 1.06 | 0.812 | 1.24 | 1.52 | 1.01 | 1.78 | 1.01 | 0.991 | 0.996 | 0.749 | 0.963 | 0.936 | 1.12 | 1.1 | 1.74
8 | CC12CCC(CC1)C(C)(C)O2 [cineole] | 0.776 | 0.185 | 0.2 | 0.903 | 0.84 | 0.307 | 0.948 | 0.73 | 0.952 | 0.199 | 0.875 | 0.872 | 0.283 | 0.315 | 0.381 | 0.282 | 0.973 | 0.762 | 0.227 | 1.01
9 | C=CCc1ccc(O)c(OC)c1 [eugenol] | 2.56 and 1.14 and 1.36 | 2.01 and 0.834 and 1.34 | 1.21 and 1.53 | 1.57 and 1.34 | 1.8 and 1.35 and 1.67 | 1.11 and 1.04 | 2.27 and 1.43 | 1.43 | 1.02 and 1.27 | 1.42 and 1.38 | 2.72 and 1.07 | 2.19 and 1.27 | 1.65 and 1.21 | 1.65 and 1.21 | 1.68 and 1.06 | 1.73 and 1.69 | 0.892 | 1.58 | 1.22 and 1.17 | 2.79 and 1.36
10 | CCCCCCCCC=O [nonyl aldehyde] | 0.985 | 1.02 | 0.805 | 0.885 | 1.12 | 0.774 | 0.897 | 1.14 | 0.917 | 0.743 | 0.849 | 0.912 | 0.752 | 0.726 | 0.808 | 0.99 | 1.13 | 0.772 | 0.712 | 0.932
11 | CC=Cc1ccc(O)c(OC)c1 [isoeugenol] | 0.897 and 2.14 | 1.54 | 1.49 | 0.812 and 1.33 | 1.4 and 3.52 | 1.28 | 1.14 and 1.28 | 0.834 and 2.24 | 1.28 | 1.23 | 0.99 | 0.803 and 1.08 | 1.54 | 1.43 | 1.62 | 1.24 | 5.64 | 4.74 | 1.1 | 1.35
12 | CCCC(=O)O [butyric acid] | 0.863 | 0.165 | 0.248 | 0.797 | 1.2 | 0.341 | 0.914 | 1.01 | 1.35 | 0.218 | 1.15 | 1.17 | 0.352 | 0.387 | 0.493 | 0.325 | 0.931 | 0.855 | 0.266 | 1.27
13 | COC(=O)c1ccccc1O [methyl salicylate] | 0.931 | 1.11 | 1.03 | 0.68 | 1.16 | 0.849 | 0.784 | 0.905 | 1.07 | 1.11 | 1.05 | 1.23 | 1.03 | 0.916 | 1.03 | 1.49 | 0.713 | 0.906 | 0.917 | 0.845
14 | O=C1CCCCCCCCCCCC(=O)OCCO1 [ethylene brassylate] | 1.28 | 1.82 | 1.51 | 1.73 | 1.48 | 1.42 | 1.56 | 1.17 | 1.71 | 2.04 | 1.12 | 1.46 | 1.6 | 1.38 | 1.25 | 1.66 | 1.7 | 1.33 | 2.12 | 1.4
15 | COc1cc(C)ccc1O [2-methoxy-4-methylphenol] | 0.773 | 0.845 | 0.802 | 0.8 | 0.937 | 1.57 | 1.3 | 1.02 | 4.7 | 1.21 | 1.85 | 0.959 | 1.42 | 1.73 | 1.11 | 0.85 | 0.826 | 0.857 | 0.514 | 1.28
16 | CCCCCC(=O)O [caproic acid] | 0.708 | 0.121 | 0.234 | 0.917 | 1.16 | 0.273 | 0.896 | 0.896 | 0.985 | 0.209 | 0.97 | 0.81 | 0.334 | 0.28 | 0.378 | 0.299 | 0.873 | 0.733 | 0.282 | 1.23
17 | CC1CCC(C(C)C)C(O)C1 (single isomer, unassigned; (-)) [(-)-menthol] | 3.68 | 0.899 | 0.957 | 0.758 | 1.23 | 0.727 | 0.973 | 4.17 | 9.45 | 1.46 | 4.27 | 1.54 | 1.28 | 1.38 | 0.691 | 0.894 | 1.45 | 1.17 | 0.403 | 2.5
18 | CCCCCCCCCC=O [decyl aldehyde] | 1.07 | 1.33 | 1.54 | 1.36 | 1.64 | 1.01 | 1.43 | 1.49 | 1.15 | 1.93 | 1 | 1.04 | 1.29 | 1.16 | 1 | 1.37 | 0.805 | 1.06 | 1.36 | 1.25
19 | O=CCc1ccccc1 [phenyl acetaldehyde] | 0.979 | 1.55 | 1.4 | 1.08 | 1.33 | 1.68 | 1.05 | 1.35 | 1.26 | 1.47 | 0.933 | 1.85 | 1.63 | 1.3 | 1.48 | 1.84 | 1.08 | 2.92 | 1.6 | 1.24
20 | CC(C)=CCCC(C)=CC=O [citral] | 0.792 | 0.171 | 0.223 | 1.03 | 1.09 | 0.354 | 1.07 | 0.973 | 1.13 | 0.297 | 1.11 | 1.01 | 0.335 | 0.375 | 0.337 | 0.432 | 0.932 | 1.29 | 0.339 | 1.31
21 | CC(C)C(=O)O [isobutyric acid] | 0.815 and 0.95 | 0.771 | 0.781 | 0.915 and 0.705 | 1.23 and 0.808 | 0.858 | 1.04 and 0.832 | 1.07 and 0.711 | 0.752 | 0.646 | 0.624 | 1.06 and 1.12 | 0.793 | 0.839 | 0.867 | 0.692 | 0.708 | 1.11 | 0.75 | 0.94
22 | CC(=O)OC1CC2CCC1(C)C2(C)C (stereo not given) [isobornyl acetate] | 0.802 and 0.96 | 0.895 | 0.798 | 1.08 and 0.792 | 0.858 and 1.24 | 1.01 | 1.08 and 0.698 | 1.01 and 0.795 | 0.684 | 0.936 | 0.438 | 1.46 and 0.973 | 0.866 | 0.887 | 0.809 | 0.684 | 0.579 | 0.987 | 0.787 | 1
23 | CC12CCC(C1)C(C)(C)C2=O (stereo not given) [fenchone] | 1.08 | 0.904 | 1.06 | 0.978 | 1.41 | 0.952 | 1.03 | 1.21 | 0.983 | 1.06 | 0.769 | 1.28 | 0.912 | 0.793 | 0.785 | 1.1 | 0.937 | 0.578 | 0.964 | 1.01
24 | C=CCc1ccc(OC)c(OC)c1 [eugenol methyl ether] | 1.59 | 1.58 | 1.62 | 1.59 | 1.87 | 1.3 | 1.72 | 1.64 | 1.39 | 1.8 | 1.39 | 1.78 | 1.48 | 1.31 | 1.13 | 1.31 | 0.904 | 0.531 | 1.51 | 1.51
25 | CCCCCCOC(=O)CCC [hexyl butyrate] | 0.784 and 0.872 | 0.962 | 0.758 | 1.45 and 0.645 | 1.07 and 1.26 | 0.749 | 1.14 and 0.825 | 0.881 and 0.808 | 0.58 | 0.826 | 0.67 | 1.12 and 0.964 | 0.937 | 0.814 | 0.845 | 0.812 | 0.976 | 0.568 | 0.681 | 0.999
26 | CCCCO [1-butanol] | 1.13 | 0.673 | 1.27 | 1.05 | 1.27 | 1.49 | 0.936 | 1.25 | 10.1 | 1.01 | 4.47 | 1.21 | 1.25 | 0.994 | 1.19 | 1.14 | 1.18 | 0.785 | 0.565 | 3.11

6 entries from above, as tab-separated lines.
Row	Structure (SMILES)	odorant receptor activation [1]	odorant receptor activation [2]	odorant receptor activation [3]	odorant receptor activation [4]	odorant receptor activation [5]	odorant receptor activation [6]	odorant receptor activation [7]	odorant receptor activation [8]	odorant receptor activation [9]	odorant receptor activation [10]	odorant receptor activation [11]	odorant receptor activation [12]	odorant receptor activation [13]	odorant receptor activation [14]	odorant receptor activation [15]	odorant receptor activation [16]	odorant receptor activation [17]	odorant receptor activation [18]	odorant receptor activation [19]	odorant receptor activation [20]
10	CCCCCCCCC=O [nonyl aldehyde]	0.985	1.02	0.805	0.885	1.12	0.774	0.897	1.14	0.917	0.743	0.849	0.912	0.752	0.726	0.808	0.99	1.13	0.772	0.712	0.932
11	CC=Cc1ccc(O)c(OC)c1 [isoeugenol]	0.897 and 2.14	1.54	1.49	0.812 and 1.33	1.4 and 3.52	1.28	1.14 and 1.28	0.834 and 2.24	1.28	1.23	0.99	0.803 and 1.08	1.54	1.43	1.62	1.24	5.64	4.74	1.1	1.35
12	CCCC(=O)O [butyric acid]	0.863	0.165	0.248	0.797	1.2	0.341	0.914	1.01	1.35	0.218	1.15	1.17	0.352	0.387	0.493	0.325	0.931	0.855	0.266	1.27
13	COC(=O)c1ccccc1O [methyl salicylate]	0.931	1.11	1.03	0.68	1.16	0.849	0.784	0.905	1.07	1.11	1.05	1.23	1.03	0.916	1.03	1.49	0.713	0.906	0.917	0.845
14	O=C1CCCCCCCCCCCC(=O)OCCO1 [ethylene brassylate]	1.28	1.82	1.51	1.73	1.48	1.42	1.56	1.17	1.71	2.04	1.12	1.46	1.6	1.38	1.25	1.66	1.7	1.33	2.12	1.4
15	COc1cc(C)ccc1O [2-methoxy-4-methylphenol]	0.773	0.845	0.802	0.8	0.937	1.57	1.3	1.02	4.7	1.21	1.85	0.959	1.42	1.73	1.11	0.85	0.826	0.857	0.514	1.28
